According to patent EP1161957A1, “Complex for transferring an anionic substance of interest into a cell” (TRANSGENE S.A., priority 2000, dated 2001):
Not every detail of the peptide structures is certain; ends, links or a residue may be inferred. Bridge positions count the residues as written; N and C are the ends. Ends that are not written are not given here. Peptide text beside a SMILES is read from it. I, II: the chains in the order shown.

Key:
B6SJL mice = details: day 1
Experimental: Indicated amounts of the luciferase expression plasmid pTG11236 were mixed with ppTG1 and /or pcTG90/DOPE. […] Muscles, tumors or organs were recovered at the indicated points of time, macerated and tested for luciferase activity with the luciferase assay kit from Promega.
After 20 min incubation at room temperature, the complexes were intravenously injected into B6SJL mice. Mice were sacrificed at day 1. The lungs were recovered, total protein was extracted and luciferase activity was analysed.
The potential of gene transfer with mono-component peptide vectors was investigated in vivo. […] Five mice per group were intravenously injected, the animals were sacrificed at day 1 after injection. Lungs were tested for luciferase activity.

[1] = Liposome leakage assay on POPC/cholesterol liposomes; type: biochemical
HeLa cells = test: Transfection in vitro, luciferase activity, HeLa cells; type: cell-based; details: 50ng pTG11236 complexed with 0.9µg ppTG1 and 0.1µg JTS1, final charge ratio 5
CHO cells = test: Transfection in vitro, luciferase activity, CHO cells; type: cell-based; details: 500ng pTG11236

Compound	gene transfer efficiency in the lung (B6SJL mice; intravenous, 50 or 60 µg pTG11236 complexed with peptide)	liposome leakage of ppTG1/pTG11236 complexes ([1]; pH7, charge ratios (P/N) of 1 or 0.8)	liposome leakage of ppTG1/pTG11236 complexes ([1]; pH7, excess of peptide over plasmid DNA (P/N 5 or 10))	factor of increase of luciferase activity versus best formulation of ppTG1/pcTG90/DOPE (HeLa cells)	factor of improvement of gene expression by ppTG1 in complexes further comprising cationic lipids (B6SJL mice; pcTG90/DOPE 1:2 with or without 42 µg ppTG1, lung)	fold more efficient in gene transfer than KALA (CHO cells) [fold]
CC(C)C[C@H](NC(=O)CN)C(=O)N[C@@H](Cc1ccccc1)C(=O)N[C@@H](CCC(=O)O)C(=O)N[C@@H](C)C(=O)N[C@@H](CC(C)C)C(=O)N[C@@H](CC(C)C)C(=O)N[C@@H](CCC(=O)O)C(=O)N[C@@H](CC(C)C)C(=O)N[C@@H](CC(C)C)C(=O)N[C@@H](CCC(=O)O)C(=O)N[C@@H](CO)C(=O)N[C@@H](CC(C)C)C(=O)N[C@@H](Cc1c[nH]c2ccccc12)C(=O)N[C@@H](CCC(=O)O)C(=O)N[C@@H](CC(C)C)C(=O)N[C@@H](CC(C)C)C(=O)N[C@@H](CC(C)C)C(=O)N[C@@H](CCC(=O)O)C(=O)N[C@@H](C)C(=O)N[C@@H](CSSC[C@H](N)C(=O)N[C@@H](Cc1ccc(O)cc1)C(=O)N[C@@H](CCCCN)C(=O)N[C@@H](C)C(=O)N[C@@H](CCCCN)C(=O)N[C@@H](CCCCN)C(=O)N[C@@H](CCCCN)C(=O)N[C@@H](CCCCN)C(=O)N[C@@H](CCCCN)C(=O)N[C@@H](CCCCN)C(=O)N[C@@H](CCCCN)C(=O)N[C@@H](CCCCN)C(=O)N[C@@H](Cc1c[nH]c2ccccc12)C(=O)N[C@@H](CCCCN)C(=O)N[C@@H](CCCCN)C(=O)N[C@@H](CCCCN)C(=O)N[C@@H](CCCCN)C(=O)N[C@@H](CCC(N)=O)C(=O)N[C@@H](CO)C(=O)O)C(=O)O [JTS-1-K13, reference compound] (I: H-GLFEALLELLESLWELLLEAC-OH / II: H-CYKAKKKKKKKKWKKKKQS-OH; disulfide I:21-II:1)	low					
GLFKALLKLLKSLWKLLLKA [ppTG1]		slightly reduced	comparable to free ppTG1	about 10	10	9
